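Whole-parasite assay of Trypanosoma brucei over 72 hours; the read-out is not stated. Concentration: 30 µM. Higher reads as stronger inhibition (inferred: compounds with an IC50 in retests scored well above the rest). Values scatter widely below zero; nearly all retest evidence comes from the higher of the two concentrations used. About 64,000 compounds were tested under these conditions; 1.5% (about 940) showed 50% or more at least once.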

Values are the deposited “Percent Effect”, in %.
The controls that fix the scale are not given in the record; negative values are as filed.
This is an unselected part of the compounds tested.

| SMILES | Percent Effect |
|---|---|
| `CCN(CC)C(=O)CN(C)C(=O)c1cccn1CCc1ccccc1` | -26.63% |
| `CC(CC(=O)N1CCC(c2nnc3n2CCC3)CC1)n1cccc1` (stereo unspecified) | -41.93% |
| `CC(C)OC(C)c1nnc(SCC(=O)O)n1-c1ccc(F)cc1F` (stereo unspecified) | -18.04% |
| `CN(C)c1ccccc1C(=O)N1C[C@@H](CN2CCCCC2)[C@@H](CO)C1` | 39.97% |
| `Cc1nc(Nc2ncccn2)cc(C2CN(C(=O)c3cccnc3)C2)n1` | 5.796% |
| `O=S(=O)(c1ccc(Cl)cc1)N1CCC(OCc2ccccn2)C1` (stereo unspecified) | -22.7% |
| `COc1cccc(C(CO)NC(=O)Cc2cccc(C)c2)c1` (stereo unspecified) | -24.02% |
| `O=C(Cc1ccc(F)cc1)NCCNc1cc(N2CCCC2)ncn1` | -36.5% |
| `CC(O)c1cnn(-c2ccccc2)c1` (stereo unspecified) | -56.33% |
| `O=C(NCCCn1ccccc1=O)c1cnc(-c2ccsc2)s1` | 22.57% |
| `CCC1CN(C)c2ccccc2CN1C(=O)Nc1ccccc1OC` (stereo unspecified) | 42.13% |
| `Cc1cc(C[C@@H]2COC[C@@H]2NC(=O)CN2CCc3ccccc3C2)on1` | -41.59% |

The values are deposited in ChEMBL (CHEMBL3988442, “University of Dundee, Small-Polar-MMV Screening Library” (2021)).